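Viability assay of Plasmodium falciparum sporozoites; the read-out is not stated. The concentration is filed as 10 mM, unlikely as a test dose, so the dose is not known. Direction is inferred from retests: higher values go with lower viability. Strong results were mostly tested again. Size under these conditions: about 34,000 compounds, about 280 of them at 50% or above in at least one test.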

Each number is a percent effect as filed. The controls that fix the scale are not given in the record; negative values are as filed. The compounds are a random part of those screened. Two or more numbers in one place are separate tests of the same structure; such repeats can differ widely.

compound	effect
[H][C@]12CCN(C(=O)Cc3ccsc3)C[C@@]1([H])OCCN(CCN(C)C)C2	7.212
Cc1csc2ncc(-c3ccnc(N4CCCN(C)CC4)n3)c(=O)n12	4.996
Cc1cccc(-n2cnnc2CCCN2CCOCC2)c1	-11.51
CC(Cc1cccs1)C(=O)NCc1cccc(N2CCCC2=O)c1 (stereo unspecified)	-4.905
N#Cc1cc(S(N)(=O)=O)ccc1NC1CCc2ccc(F)cc21 (stereo unspecified)	0.6857
CC(=O)Nc1nc(C(=O)N2CCCC(n3cncn3)C2)cs1 (stereo unspecified)	82.11 and 81.18 and 79.89
CCc1nc(CN(C)C2CCN(CCS(C)(=O)=O)C2)no1 (stereo unspecified)	4.902
CCOCc1nc2c(c(NCc3cc(C)on3)n1)CCN(C(C)=O)CC2	-17.61
CC(=O)N1CCCN(C(=O)NCc2ccccn2)CC1	2.689
[H][C@@]12CN(Cc3nccn3C)C[C@]1([H])OCCN2c1ncccn1	-5.724
CN(C)CCN1CCCC12CCN(C(=O)c1cnccn1)CC2	-4.398 and 10.36 and 14.35
CS(=O)(=O)N1CCC2(CC1)CC(CC(=O)N1CCCC1)c1ccccc12 (stereo unspecified)	10.18
Cc1cnn(C2CCCN(C(=O)c3ccn(C)c(=O)c3)C2)c1 (stereo unspecified)	-10.17
Cc1cc2c(cc1C(=O)N1CC[C@H](CO)[C@@H](O)C1)OCCO2	-0.3119
COc1ccccc1C(=O)Nc1cc(CC(C)C)nn1C	6.571
COc1cccc(CN2CCCCC2Cn2nc(C)nc2C)c1 (stereo unspecified)	2.431
Cc1cc(NC(=O)N(Cc2ccc(C#N)cc2)C(C)C)no1	-17.69
CN1CCCN(c2nccc(-c3c[nH]nc3-c3ccncc3)n2)CC1	18.2
CCn1ccnc1CN1CCCN(C(=O)c2ccnc(C)n2)CC1	11.23
Cn1cccc1C(=O)N1CCC2(CCCN2Cc2ccccc2)CC1.O=C(O)C(F)(F)F	-9.976
O=C(O)C(F)(F)F.[H][C@@]12CCN(C3CCOCC3)[C@@]1([H])CC(=O)N2Cc1csc(C)n1	-6.08
Cc1c[nH]nc1C1CCN(S(=O)(=O)N(C)C)CC1	-6.043
CC(=O)NCC1CCN(c2cc(C(C)C)nc3ccnn23)CC1	-1.213
Cc1ccc2c(c1)C1(CCNCC1)CN2C(=O)C(C)C	5.556
Nc1cc2c(nn1)CCN(C(=O)c1ccc(Oc3cccnc3)cc1)C2	-3.2
COc1ccc(CC(=O)N(C)Cc2nnc3ccccn23)cc1	2.543
Cl.Cl.Fc1ccc2c(c1)C1(CCNCC1)CC2NC1CC1 (stereo unspecified)	8.581
CCc1cc(CN(C)C(=O)C2CC(=O)N(c3cccc(O)c3)C2)on1 (stereo unspecified)	-0.7895
Cc1cccc(OCCNC(=O)C(C)S(=O)(=O)c2ccccn2)c1 (stereo unspecified)	5.379
CCc1noc(C(C)N2CCC(N3CCCCC3)CC2)n1 (stereo unspecified)	4.666
Cc1cc(NC(=O)c2ccc(-n3ncc(C#N)c3N)cc2)n(C)n1	8.117
Cc1cnn(CC2CN(c3ncnc4ccccc34)CCO2)c1 (stereo unspecified)	2.549
CNC[C@H]1CC[C@H](c2cc(CN(C)C(=O)c3cnccn3)n(C)n2)CC1.Cl	1.641
Cn1ncc(NC(=O)c2noc3c2CCCC3)c1C(N)=O	13.11
Cc1cccc(CS(=O)(=O)CC(=O)NCCCOC(C)C)c1	14.55
O=C(NCCN1CCNCC1)c1nc2ccccc2c(=O)[nH]1	4.386
O=C(O)C(F)(F)F.[H][C@]12CCC[C@@]1(COCc1cccnc1)CN(C(=O)c1ncccn1)C2	2.349
O=C(O)C(F)(F)F.[H][C@@]12CCN(c3ncccn3)C[C@@]1([H])O[C@@H](C(=O)NCCOC)C2	-7.807
Cn1cc(CN2CCCCC2c2ccc(-c3cnn(C)c3)nc2)cn1 (stereo unspecified)	1.77
CN1CCNC(Cc2ccc(-c3ccccc3)cc2)C1=O (stereo unspecified)	9.457
Fc1ccc(Cc2cccc(C3CCN(C4CCOCC4)CC3)n2)cc1	8.661
Cc1ccc(-c2nnc(CNCCn3cc(C)cn3)o2)cc1	-1.956
CC(=O)N1CCN(Cc2ccncc2)CC2(CC(=O)N(C)C2)C1.O=C(O)C(F)(F)F.O=C(O)C(F)(F)F (stereo unspecified)	-11.91
CN(C)c1cc(CNC(=O)c2ccc(O)nc2)ccn1	2.959
Cc1ccc2nc(C)cc(NCCNS(=O)(=O)c3cccnc3)c2c1	4.908
CNC(=O)c1ccc(C(=O)N2CCCC(n3cc(C)cn3)C2)cn1 (stereo unspecified)	-4.415
COc1ccc(OC)c(NC(=O)N2CCCC2c2ccco2)c1 (stereo unspecified)	0.1117
CCc1nc(C2CCCN(C(=O)c3ccccc3Cl)C2)no1 (stereo unspecified)	15.01 and -17.97 and -41.67
Cc1noc(C)c1-c1cnc(CC2CCN(C(=O)c3cc[nH]n3)C2)cn1 (stereo unspecified)	-6.991
CC(C)Cn1ncc(C(=O)NS(=O)(=O)c2ccccc2)c1C1CC1	4.931
Cc1cc(NCc2csc(-c3ccsc3)n2)no1	-2.477
[H][C@@]12CCN(C(=O)NC(C)C)CC[C@]1(C(=O)Nc1cccnc1)CCN2C	12.96
CC(=O)NC[C@]1(O)CCN(C(=O)c2ccc(F)c(Cl)c2)C[C@H]1O	8.536
CC(C)CN1C(=O)C2(CCCC2)NC1c1cn(C)c(=O)n(C)c1=O (stereo unspecified)	-13.69
Cc1csc(N2CCN(C(=O)CCc3nccs3)CC2)n1	8.8
CCN(CC)c1ccc(CNC(=O)c2cccc(C)n2)cn1	-8.457
Cc1nc(CNC2CCN(Cc3ccccc3)C2)sc1C (stereo unspecified)	22.55 and 28.53
Cc1cc(C(=O)NCCN2CCCCC2)nn1C(C)(C)C	-27.57
COCCN1CCOCC2(CCN(c3cnccn3)CC2)C1.O=C(O)C(F)(F)F	1.107
COC(=O)C(NC(=O)c1ccco1)c1cc(F)ccc1F (stereo unspecified)	5.397
CN(C)S(=O)(=O)N1CCCC(c2nccnc2-c2cccc(Cl)c2)C1 (stereo unspecified)	6.031
O=C1N(c2ccsc2)CCC12CCCN(c1ncc(F)cn1)C2 (stereo unspecified)	3.376
CCOC1COC2(CCN(C(=O)c3cccc(C)n3)CC2)C1.O=C(O)C(F)(F)F (stereo unspecified)	7.279
Cn1ccc(-c2cc(C(=O)N3CCC(C(N)=O)CC3)c3ccccn23)n1	-2.188
Cc1ccc(NC2CCN(C(=O)Cc3cccs3)CC2)nn1	2.659
CCc1cnc(CN(C(C)=O)C2CCN(CCc3ccccn3)C2)o1 (stereo unspecified)	6.457
CCC(C)(C)n1nnnc1C(c1cccs1)N1CCc2ccccc21 (stereo unspecified)	8.053
CC(O)CN1CCN(C(=O)c2cccn2Cc2ccncc2)CC1 (stereo unspecified)	6.826
N#Cc1ccc(OCCN2CCc3cncnc3C2)cc1	7.463
[H][C@@]12CCN(C(C)=O)CC[C@]1(C(=O)Nc1cccnc1)CCN2C	-8.406
CCn1cnnc1C1CCN(C(=O)COc2ccccc2)CC1	-8.453 and 1.541 and -66.13
Cc1ccsc1-c1cccc(-c2ccn(CC3CCNC3)n2)c1 (stereo unspecified)	75.23 and 72.27 and 75.29
CC(Cn1cccn1)NCc1csc(COc2ccc(F)cc2)n1 (stereo unspecified)	3.606
CC(=O)NCC1CCN(C(=O)c2c(C)[nH]c3ccc(Cl)cc23)CC1	-16.56
CC(C)Oc1ncccc1CNC(=O)NC1CCOc2ccccc21 (stereo unspecified)	1.485
N#Cc1cccc(NC(=O)N[C@H](CO)c2ccccc2)c1	-5.765
Cc1occc1C(=O)N1CCC2(CCC(=O)N(CC(N)=O)C2)CC1	-2.24
COCc1nc(N(C)C)ncc1C(=O)NC(C)C	-3.289
CN(C)C(=O)N1Cc2nnn(CC3CC3)c2C(COCC2CC2)C1 (stereo unspecified)	-5.719
COCCNC(=O)c1cc(S(=O)(=O)N2CCCCC2)cs1	0.5198
[H][C@@]12C[C@@H](O)C[C@]1([H])CN(Cc1ccc(C(C)(C)C)cc1OCC(N)=O)C2	7.386
CCn1nccc1CNC(=O)NC1CCCCC1	3.708
Cc1cccnc1CN1CC[C@H](Oc2cccc(F)c2)[C@@](C)(O)C1	1.339
O=C(Nc1cccnc1N1CCCC1)C1CCS(=O)(=O)C1 (stereo unspecified)	7.169
COc1ccccc1CC(=O)NS(=O)(=O)c1ccc(C(N)=O)cc1	-1.145
CCn1nnc2c1C(COC)CN(Cc1ccco1)C2 (stereo unspecified)	10.92
CN(CC(=O)N1CCCCC1Cn1cccn1)C1CC1 (stereo unspecified)	18.37
NC(=O)C1Cn2ccnc2C2(CCN(C(=O)NC3CCCC3)CC2)O1.O=C(O)C(F)(F)F (stereo unspecified)	-3.16
CCN1CCNC(=O)C12CCN(S(=O)(=O)c1ccc(OC)cc1)CC2	2.737
Cc1cc(NC(=O)c2nc(N3CCCC3)ncc2Cl)ccc1Br	1.775
Cc1nc(CN2CCN(CCOc3ccc(C(C)C)c(C)c3)CC2)no1	14.09
COCCCC1CCCN(C(=O)CCc2csc(N)n2)C1 (stereo unspecified)	3.859
CC(C)CS(=O)(=O)N1CCC2(CN(c3cccc(F)c3)C(=O)CN2C)C1.O=C(O)C(F)(F)F (stereo unspecified)	9.933

For reference, 9 entries once more:

{"compound": "CCC(C)(C)n1nnnc1C(c1cccs1)N1CCc2ccccc21", "stereo": "stereo unspecified", "effect": 8.053}
{"compound": "CCc1nc(CN(C)C2CCN(CCS(C)(=O)=O)C2)no1", "stereo": "stereo unspecified", "effect": 4.902}
{"compound": "COCCN1CCOCC2(CCN(c3cnccn3)CC2)C1.O=C(O)C(F)(F)F", "effect": 1.107}
{"compound": "CC(C)CN1C(=O)C2(CCCC2)NC1c1cn(C)c(=O)n(C)c1=O", "stereo": "stereo unspecified", "effect": -13.69}
{"compound": "[H][C@@]12CCN(C(C)=O)CC[C@]1(C(=O)Nc1cccnc1)CCN2C", "effect": -8.406}
{"compound": "CC(=O)N1CCN(Cc2ccncc2)CC2(CC(=O)N(C)C2)C1.O=C(O)C(F)(F)F.O=C(O)C(F)(F)F", "stereo": "stereo unspecified", "effect": -11.91}
{"compound": "N#Cc1cccc(NC(=O)N[C@H](CO)c2ccccc2)c1", "effect": -5.765}
{"compound": "Cc1nc(CNC2CCN(Cc3ccccc3)C2)sc1C", "stereo": "stereo unspecified", "effect": "22.55 and 28.53"}
{"compound": "CC(=O)NCC1CCN(C(=O)c2c(C)[nH]c3ccc(Cl)cc23)CC1", "effect": -16.56}

Measurements from “University of Dundee, Small-Polar-MMV Screening Library” (2021), ChEMBL document CHEMBL3988442.